From article PMC7819943, “Rice protein-binding microarrays: a tool to detect cis-acting elements near promoter regions in rice”
The list shows a part of the results.

What follows are sequences tested against T1, OsSMF1 (Oryza sativa, UniProt Q6ZLB0 1-436) (assay: protein-binding microarray (RPBM); PBS, 2% BSA, 51.3 ng/ul salmon testes DNA, 50 uM zinc acetate, 200 nM TF, 25 C, 1 h; high values mean tight binding). Settings: protein: recombinant; tags: N-terminal polyhistidine and DsRed monomer fusion (pET32a); chain copies: 2; label: CyDye5-dUTP incorporated in the synthesized complementary strand; 3' TTTTT single-stranded linker to array surface; dsDNA, one strand shown.
T1 sequence: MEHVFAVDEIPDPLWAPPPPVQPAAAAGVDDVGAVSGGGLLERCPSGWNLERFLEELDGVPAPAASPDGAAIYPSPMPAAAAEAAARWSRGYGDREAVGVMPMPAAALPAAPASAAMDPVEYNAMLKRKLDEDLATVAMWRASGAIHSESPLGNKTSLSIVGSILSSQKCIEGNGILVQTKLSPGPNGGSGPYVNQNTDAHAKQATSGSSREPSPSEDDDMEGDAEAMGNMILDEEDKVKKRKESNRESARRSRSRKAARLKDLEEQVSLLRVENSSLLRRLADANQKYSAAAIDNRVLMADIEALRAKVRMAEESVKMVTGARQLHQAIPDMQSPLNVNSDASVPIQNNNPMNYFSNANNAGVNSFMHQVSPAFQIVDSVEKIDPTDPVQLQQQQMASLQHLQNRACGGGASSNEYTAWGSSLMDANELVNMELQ
How it was run: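 Binding signal is defined as the fluorescence intensity of each feature in arbitrary units, read on an Axon 4000B scanner. Transcription factors with N-terminal polyhistidine and DsRed fusions came from E. coli BL21-CodonPlus and were purified on Ni–NTA. They were incubated at 200 nM for 1 h at 25 °C on a custom Agilent array that had been made double-stranded with Cy5-dUTP, with 50 µM zinc acetate present, and the array was washed.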

Sequence	binding signal
CCCCACAACCCCGCATCGTCATCACCACCACCACTCCTCGCGGAGTCACCTAGTGCAG	3600 fluorescence intensity (a.u.)
TATGATTTTAAATTCGTCATACTCTAGTTAGCCTAGAAAACGGAGTCACCTAGTGCAG	3430 fluorescence intensity (a.u.)
TTATGCGCTAATCCACTCCAGATCACGCCGCTAATCCTTACGGAGTCACCTAGTGCAG	3540 fluorescence intensity (a.u.)
CTTATCGAGCTGACGGCCAGGTACCCGCCGTGGGATGACACGGAGTCACCTAGTGCAG	4060 fluorescence intensity (a.u.)
CGTCCACGTGCTTCCTAAGATCTGACTCCTCTTGCATCTGCGGAGTCACCTAGTGCAG	4640 fluorescence intensity (a.u.)
GTCTAAAATATTGGGTCCACCAATTTAAGTGAAAATCGACCGGAGTCACCTAGTGCAG	24600 fluorescence intensity (a.u.)
GGTTTCTTGATCAGAACTCCACTTAGAGCAACTTCAACAGCGGAGTCACCTAGTGCAG	3320 fluorescence intensity (a.u.)
ATACCACTGGAGTGTCGAGACAGCTGCCTGCACGCCACTGCGGAGTCACCTAGTGCAG	3470 fluorescence intensity (a.u.)
AACGGAGGCAAGAACTACCTCGCCGTGGACACGTCCGGCACGGAGTCACCTAGTGCAG	5440 fluorescence intensity (a.u.)
CAAAATTAGTCAAGCACATGAACAGTCAGCATGGCCGTGCCGGAGTCACCTAGTGCAG	8340 fluorescence intensity (a.u.)
GGATAACACCAACCAACGAGTCCACGTCGTCTCGTCTCCCCGGAGTCACCTAGTGCAG	11200 fluorescence intensity (a.u.)
AATTATAAAATATTGTTCATAATGTGACATGCTAGCGATCCGGAGTCACCTAGTGCAG	3410 fluorescence intensity (a.u.)
CATCCTGATCCACATGTCATTGACTCACGTGGGTACTACACGGAGTCACCTAGTGCAG	5200 fluorescence intensity (a.u.)
TGGCAGTAAAACACCACGTGCTGGAACGTATGGCATATGGCGGAGTCACCTAGTGCAG	3290 fluorescence intensity (a.u.)
GCTTTCCGCCGCAGTCTGCCCCTCTGCCACCGGGCCCCACCGGAGTCACCTAGTGCAG	31600 fluorescence intensity (a.u.)
ATCAGTCCTTCCCATCCTCTGTTAGCCTCGCGTGACGCCCCGGAGTCACCTAGTGCAG	3770 fluorescence intensity (a.u.)
AAGCTAGCACACTGGTTATAGCACGTGGTATTTGTTCTCACGGAGTCACCTAGTGCAG	5280 fluorescence intensity (a.u.)
TTCGCAAAACAAAATTTTCACCTATCACATCGAATGTTTGCGGAGTCACCTAGTGCAG	3270 fluorescence intensity (a.u.)
CGGTTAGGTGCGCCGGCCACCAGCCAACCACCTGACGCGGCGGAGTCACCTAGTGCAG	7490 fluorescence intensity (a.u.)
GTGCGGCACAACACAATTGTTTCCTTTCCTTTTCTTTCTCCGGAGTCACCTAGTGCAG	19600 fluorescence intensity (a.u.)
AGCTTCGTGCGGACGCGGCCGCCGGGCTGTAGCTGCAACTCGGAGTCACCTAGTGCAG	3460 fluorescence intensity (a.u.)
AATTCAATATAATCCCATGGCGTCAGCTTGATACTGCTCCCGGAGTCACCTAGTGCAG	3560 fluorescence intensity (a.u.)
TCGACCCACCGTCTGCCACGTCAGCTTGCCGCCCACCAATCGGAGTCACCTAGTGCAG	28900 fluorescence intensity (a.u.)
ACTTCCATTTGTTCCACGTCACCGCCCTCCCCAATATCTACGGAGTCACCTAGTGCAG	16000 fluorescence intensity (a.u.)
CACACATGAATACACAATCATTAACACAAACGGCGGCGACCGGAGTCACCTAGTGCAG	26200 fluorescence intensity (a.u.)
GTGGGCTTAGACGGCCCAGTCATGACCCTTTCATTTCGTGCGGAGTCACCTAGTGCAG	3440 fluorescence intensity (a.u.)
TGGCGTTGATGTGGCATGCCACACAGATATGATGTGGCATCGGAGTCACCTAGTGCAG	11000 fluorescence intensity (a.u.)

Sequence	binding signal
TTTTCTGCCTCTCATGTCATCATCAACTCGCCCATAACTTCGGAGTCACCTAGTGCAG	18500 fluorescence intensity (a.u.)
GCAAAATCCACACGATACCCTCGTGTCGTGCCTACCTTGGCGGAGTCACCTAGTGCAG	4150 fluorescence intensity (a.u.)
TAGCATTAACACATTCCGTTGGCAGTTGGCGGCTGTACGGCGGAGTCACCTAGTGCAG	16700 fluorescence intensity (a.u.)
CTCCCCTTCTCCCGTCGACGCGGGTGACGACCTCTCCCCTCGGAGTCACCTAGTGCAG	5390 fluorescence intensity (a.u.)
ATGACCTTAATTTACCTATATAAACCCAGGCCACGTCAGCCGGAGTCACCTAGTGCAG	36400 fluorescence intensity (a.u.)
TAGGGAATATGGGCAACCGATGACTTGGAGGAGGCAGCTTCGGAGTCACCTAGTGCAG	29800 fluorescence intensity (a.u.)
GGATGAAGGAAAGAGAAAATGACAATTTGGTCCCAAACATCGGAGTCACCTAGTGCAG	26000 fluorescence intensity (a.u.)
GCTGCTTGGCCCAAAACCAAACGCCACGTGCCCACGGCCTCGGAGTCACCTAGTGCAG	4490 fluorescence intensity (a.u.)
GCGATCATGTTGTGCTAATCGGTATAATTAGTGACCCTAACGGAGTCACCTAGTGCAG	34500 fluorescence intensity (a.u.)
ATTACTCGATTGGTTAAGAAAGCGAAGAGCTTTGCCCCAACGGAGTCACCTAGTGCAG	15600 fluorescence intensity (a.u.)
AAAGGACGGACAGTTTCCTGCGCAAATTCCACGTTCCACCCGGAGTCACCTAGTGCAG	3460 fluorescence intensity (a.u.)
CTGCAGCACTGTGACCCGATTCGATTCCTTTGTTCTCCCCCGGAGTCACCTAGTGCAG	5010 fluorescence intensity (a.u.)
GAATCGATATGGCGGTGGCGCGGTGCTAGGGTTCTCCTCGCGGAGTCACCTAGTGCAG	13300 fluorescence intensity (a.u.)
GCACCTCGTTAGGCTTCATGGTCATGGCTCGTCGCTGACGCGGAGTCACCTAGTGCAG	6120 fluorescence intensity (a.u.)
CAATTTGGCAGCCGTCAAACACTGATGTGTCACACACATGCGGAGTCACCTAGTGCAG	5240 fluorescence intensity (a.u.)
AAGGTGAAATGCTGGTTGTGATGTCATCTGCAGATTCAGCCGGAGTCACCTAGTGCAG	6530 fluorescence intensity (a.u.)
GCTGCCAACCCGAGTCACGAGACCTCATCTCTCCTCAATCCGGAGTCACCTAGTGCAG	3220 fluorescence intensity (a.u.)
TCTTGACATCCGGAATCATCACGCTCTTCCCAATCGAGGTCGGAGTCACCTAGTGCAG	3680 fluorescence intensity (a.u.)
TGGCGCCTCTCACCGCCACGTCGCCGCCGGCGAGGTGAAACGGAGTCACCTAGTGCAG	20800 fluorescence intensity (a.u.)
CACCGACCGCCGTCGCACGTTCGTCTCCACGTTCGTCGTTCGGAGTCACCTAGTGCAG	3380 fluorescence intensity (a.u.)
AAACATTTTGAGCCAAGTCCATGCATCTCTCTTGGTCTTGCGGAGTCACCTAGTGCAG	4500 fluorescence intensity (a.u.)
TGCAACACGGCTTTGATGAGATCACGTGTGAGCAAGGATTCGGAGTCACCTAGTGCAG	3380 fluorescence intensity (a.u.)
CGACGCCTACGCCTACGCGGTCGGAAGCTTCCGGTCGCCGCGGAGTCACCTAGTGCAG	23500 fluorescence intensity (a.u.)
TTGCCTGCATTGCTTCTGCATGATGCGTCTGTATTTCAAGCGGAGTCACCTAGTGCAG	30900 fluorescence intensity (a.u.)
TACCTACACTATTGCTAGGCAGAAATTTCTTTTCACCCATCGGAGTCACCTAGTGCAG	29200 fluorescence intensity (a.u.)
TCGACCGTTGCCACCTCGCAGCGTAGTCAGAGACCCACCCCGGAGTCACCTAGTGCAG	5160 fluorescence intensity (a.u.)
ACGACGCCATTCCGGGAAATGTCATTGTGGCGAAACCCACCGGAGTCACCTAGTGCAG	3400 fluorescence intensity (a.u.)

Reprinted at random: 5 records from the list, in no set order.
Sequence	binding signal
TTTTCTGCCTCTCATGTCATCATCAACTCGCCCATAACTTCGGAGTCACCTAGTGCAG	18500 fluorescence intensity (a.u.)
GGTTTCTTGATCAGAACTCCACTTAGAGCAACTTCAACAGCGGAGTCACCTAGTGCAG	3320 fluorescence intensity (a.u.)
CTCCCCTTCTCCCGTCGACGCGGGTGACGACCTCTCCCCTCGGAGTCACCTAGTGCAG	5390 fluorescence intensity (a.u.)
CATCCTGATCCACATGTCATTGACTCACGTGGGTACTACACGGAGTCACCTAGTGCAG	5200 fluorescence intensity (a.u.)
TCGACCCACCGTCTGCCACGTCAGCTTGCCGCCCACCAATCGGAGTCACCTAGTGCAG	28900 fluorescence intensity (a.u.)
